{"source": "patent US20140349297A1", "about": "“FLUORESCENT DYES BASED ON ACRIDINE AND ACRIDINIUM DERIVATIVES” (Almac Sciences (Scotland) Limited, priority 2011, published 2014)", "key": {"[1]": {"experiment": "Fluorescence lifetime of DEVDSK labelled with dye derivatives III-VII (Table 5)", "format": "physicochemical", "details": "1 μM concentration"}, "[2]": {"experiment": "Fluorescence lifetime of dye labelled DEVDSX peptides (Table 3)", "format": "physicochemical", "details": "1 pM peptide concentration"}}, "note": "Part of at least one peptide drawing is inferred or uncertain, most often the ends. At least one compound was matched to its structure with a doubt left. Peptide text beside a SMILES is read from it. * marks the point of attachment. X1 = Cc1c2ccccc2[n+](C)c2ccc(CCC(=O)*)cc12", "data": [{"compound": "Cc1c2ccccc2[n+](C)c2ccc(CCC(=O)N[C@@H](CC(=O)O)C(=O)N[C@@H](CCC(=O)O)C(=O)N[C@H](C(=O)N[C@@H](CC(=O)O)C(=O)N[C@@H](CO)C(=O)N[C@@H](CCCCN)C(N)=O)C(C)C)cc12", "note": "[LLD-DEVDSK, 2-(2-carboxyethyl)-9,10-dimethylacridin-10-ium-DEVDSK] (X1-DEVDSK-NH2)", "values": [{"measurement": "Average Lifetime", "setting": "[1]; 50 mM TRIS pH 7.4", "result": 29.3, "unit": "ns"}, {"measurement": "Average Lifetime", "setting": "[1]; Water", "result": 31.1, "unit": "ns"}, {"measurement": "Average Lifetime", "setting": "[2]; 50 mM TRIS pH 7.4", "result": 29.3, "unit": "ns"}, {"measurement": "Average Lifetime", "setting": "[2]; Water", "result": 31.1, "unit": "ns"}]}]}
